Some results were stated once for a whole list of compounds, not compound by compound.
Target: T1, A-beta 1-42 aggregates formed by precipitation with zinc (Homo sapiens, UniProt P05067)
T1 construct: host or cells: chemically synthesised peptide
Assay: Assay 17 synthetic amyloid plaque disaggregation assay (thioflavin T)
Format: biochemical
Method: Assay 17. Synthetic Amyloid Plaque Disaggregation Assay
This assay measures the ability of test compounds to dissolve aggregates of synthetic Alzheimer's A-beta 42 residue peptide formed by precipitation with zinc.
The synthetic plaque disaggregation assay is a thioflavin T fluorescence-based assay which measures the ability of a test compound to disaggregate synthetic aggregates generated by the incubation of Alzheimer's amyloid A-beta protein (Aβ) in the presence of zinc.
The 42 residue A-beta which is the form most prevalent in Alzheimer's amyloid plaques is precipitated by the addition of zinc salts to form a beta sheet conformational aggregate physicochemically congruent with the crystalline amyloid plaque cores. […] Solubilisation of the metal bound aggregates by a test compound will result in reduced fluorescence as the beta sheet conformation is lost. […]
Aliquots of synthetic Aβ peptide are prepared for convenience. Aβ is dissolved in distilled H2O and peptide concentration is assessed by absorption at 214 nm against a validated standard curve. […]
A-beta 1-42 is incubated with ZnCl2 and Thioflavine T (ThT) in a molar ratio of (1:2:2) for 24 hours at 37 degrees on a rotating wheel in PBS pH 6.6. […] After 2 hour incubation, samples are measured for ThT fluorescence using an LS55 (Perkin Elmer) fluorimeter in a cuvette. […]

Protein sequences, listed by entry. Tags and fused reporters are not part of them. Residues count along the entry.
UniProt P05067, 672-713 limits assumed: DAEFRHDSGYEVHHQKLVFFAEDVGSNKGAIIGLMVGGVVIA

With `Br.O=c1c2c(Cl)cc(Cl)c(O)c2ncn1Nc1ccc(F)cc1F` [Compound 1100] the “disaggregation (rating in words)” value was “very good (A test compound able to achieve an IC50 at less than 20 μM and scoring greater than 40% disaggregation at 5 μM is considered ‘very good’)”.
With `Br.O=c1c2c(Cl)cc(Cl)c(O)c2ncn1Cc1cccc(Cn2cnc3c(O)c(Cl)cc(Cl)c3c2=O)n1` [Compound 1101] the “disaggregation (rating in words)” value was “very good (A test compound able to achieve an IC50 at less than 20 μM and scoring greater than 40% disaggregation at 5 μM is considered ‘very good’)”.
